{"source": "PubChem BioAssay AID602196 – INSERM – 2012", "screen": "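Genes whose knock-down alters cisplatin killing of lung cancer cells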", "system": "human A549 lung cancer cells", "reagent": "siRNA pair against human genes", "duration": "48 h transfection before cisplatin; time from cisplatin to read-out not stated", "treatment": "cisplatin at a dose killing half of control-siRNA cells; exact dose and duration not given", "detection": "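Shift in cisplatin death relative to control siRNA, from -50 (all cells die) to +50 (no cells die); siRNAs harmful on their own scored 0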", "scale": "two-siRNA summed score (-2 to +2): higher = both siRNAs protect from cisplatin killing; -2 means both sensitise; mean protection from cisplatin (shift in death): higher = protection from cisplatin killing", "rule for the call": "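Each siRNA scores 0 if harmful alone by LDH or WST-1, otherwise +1 if it reduces and -1 if it increases cisplatin killing; a gene is active when both siRNAs agree (sum +2 or -2)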", "meaning of the calls": "active = both siRNAs shift cisplatin killing the same way; inactive = no consistent shift, or siRNA harmful alone", "note": "In all, the deposit lists about 23,000 reagents; this is a part drawn at random. 455 of them (2%) were called active. 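Active includes both protection and sensitisation; some change values fall well beyond the stated -50 to +50 range.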 Entries without a mark were called inactive. Not all columns of the deposit are shown. The record does not give: the amount of reagent."}
{"gene": "TRMT112P6", "PubChem SID": "SID131509820", "two-siRNA summed score (-2 to +2)": 0, "mean protection from cisplatin (shift in death) (%)": 2.6}
{"gene": "ZC3H14", "PubChem SID": "SID131516179", "two-siRNA summed score (-2 to +2)": 0, "mean protection from cisplatin (shift in death) (%)": 10.4}
{"gene": "PRKCSH", "PubChem SID": "SID131503027", "two-siRNA summed score (-2 to +2)": 0, "mean protection from cisplatin (shift in death) (%)": -15.6}
{"gene": "SNTB1", "PubChem SID": "SID131516989", "two-siRNA summed score (-2 to +2)": 0, "mean protection from cisplatin (shift in death) (%)": 12.1}
{"gene": "DLX4", "PubChem SID": "SID131513201", "two-siRNA summed score (-2 to +2)": 0, "mean protection from cisplatin (shift in death) (%)": 6.3}
{"gene": "LOC389289", "PubChem SID": "SID131501325", "two-siRNA summed score (-2 to +2)": -1, "mean protection from cisplatin (shift in death) (%)": -10.6}
{"gene": "LOC440569", "PubChem SID": "SID131512100", "two-siRNA summed score (-2 to +2)": 0, "mean protection from cisplatin (shift in death) (%)": 5.1}
{"gene": "LOC401006", "PubChem SID": "SID131517426", "two-siRNA summed score (-2 to +2)": 0, "mean protection from cisplatin (shift in death) (%)": 13.4}
{"gene": "LOC283551", "PubChem SID": "SID131514408", "two-siRNA summed score (-2 to +2)": 0, "mean protection from cisplatin (shift in death) (%)": 7.8}
{"gene": "BORCS6", "PubChem SID": "SID131506910", "two-siRNA summed score (-2 to +2)": 0, "mean protection from cisplatin (shift in death) (%)": -0.8}
{"gene": "PTTG1", "PubChem SID": "SID131503620", "two-siRNA summed score (-2 to +2)": 0, "mean protection from cisplatin (shift in death) (%)": -8.8}
{"gene": "HOXD13", "PubChem SID": "SID131501663", "two-siRNA summed score (-2 to +2)": -1, "mean protection from cisplatin (shift in death) (%)": -8.3}
{"gene": "CNPY3", "PubChem SID": "SID131505991", "two-siRNA summed score (-2 to +2)": 0, "mean protection from cisplatin (shift in death) (%)": -2.2}
{"gene": "PPARG", "PubChem SID": "SID131504025", "two-siRNA summed score (-2 to +2)": 0, "mean protection from cisplatin (shift in death) (%)": -6.8}
{"gene": "GABRA5", "PubChem SID": "SID131521788", "two-siRNA summed score (-2 to +2)": 1, "mean protection from cisplatin (shift in death) (%)": 14.9}
{"gene": "USP42", "PubChem SID": "SID131518867", "two-siRNA summed score (-2 to +2)": 0, "mean protection from cisplatin (shift in death) (%)": 33.9}
{"gene": "PMP2", "PubChem SID": "SID131502430", "two-siRNA summed score (-2 to +2)": -1, "mean protection from cisplatin (shift in death) (%)": -2.3}
{"gene": "C9orf78P2", "PubChem SID": "SID131509322", "two-siRNA summed score (-2 to +2)": 0, "mean protection from cisplatin (shift in death) (%)": 2}
{"gene": "NRTN", "PubChem SID": "SID131512410", "two-siRNA summed score (-2 to +2)": 0, "mean protection from cisplatin (shift in death) (%)": 5.4}
{"gene": "NCOA7", "PubChem SID": "SID131523179", "two-siRNA summed score (-2 to +2)": "2 (active)", "mean protection from cisplatin (shift in death) (%)": 23.7}
{"gene": "PDK1", "PubChem SID": "SID131511484", "two-siRNA summed score (-2 to +2)": 0, "mean protection from cisplatin (shift in death) (%)": 4.4}
{"gene": "TTC3", "PubChem SID": "SID131506665", "two-siRNA summed score (-2 to +2)": 0, "mean protection from cisplatin (shift in death) (%)": -1.2}
{"gene": "LOC440779", "PubChem SID": "SID131516808", "two-siRNA summed score (-2 to +2)": 0, "mean protection from cisplatin (shift in death) (%)": 11.7}
{"gene": "FOXJ3", "PubChem SID": "SID131521125", "two-siRNA summed score (-2 to +2)": 1, "mean protection from cisplatin (shift in death) (%)": 12.3}
{"gene": "KLF1", "PubChem SID": "SID131513229", "two-siRNA summed score (-2 to +2)": 0, "mean protection from cisplatin (shift in death) (%)": 6.4}
{"gene": "CAPN15", "PubChem SID": "SID131508002", "two-siRNA summed score (-2 to +2)": 0, "mean protection from cisplatin (shift in death) (%)": 0.5}
{"gene": "IL3", "PubChem SID": "SID131505056", "two-siRNA summed score (-2 to +2)": 0, "mean protection from cisplatin (shift in death) (%)": -3.9}
{"gene": "ARHGEF10", "PubChem SID": "SID131504156", "two-siRNA summed score (-2 to +2)": 0, "mean protection from cisplatin (shift in death) (%)": -6.3}
{"gene": "TMEM230", "PubChem SID": "SID131512914", "two-siRNA summed score (-2 to +2)": 0, "mean protection from cisplatin (shift in death) (%)": 6}
{"gene": "ABHD2", "PubChem SID": "SID131512748", "two-siRNA summed score (-2 to +2)": 0, "mean protection from cisplatin (shift in death) (%)": 5.8}
{"gene": "PPIL1", "PubChem SID": "SID131514830", "two-siRNA summed score (-2 to +2)": 0, "mean protection from cisplatin (shift in death) (%)": 8.3}
{"gene": "PRELID1", "PubChem SID": "SID131518667", "two-siRNA summed score (-2 to +2)": 0, "mean protection from cisplatin (shift in death) (%)": 23.9}
{"gene": "USB1", "PubChem SID": "SID131517218", "two-siRNA summed score (-2 to +2)": 0, "mean protection from cisplatin (shift in death) (%)": 12.8}
{"gene": "CFHR2", "PubChem SID": "SID131510422", "two-siRNA summed score (-2 to +2)": 0, "mean protection from cisplatin (shift in death) (%)": 3.2}
{"gene": "CSPP1", "PubChem SID": "SID131509191", "two-siRNA summed score (-2 to +2)": 0, "mean protection from cisplatin (shift in death) (%)": 1.9}
{"gene": "SLC12A2", "PubChem SID": "SID131504281", "two-siRNA summed score (-2 to +2)": 0, "mean protection from cisplatin (shift in death) (%)": -5.9}
{"gene": "KHDRBS3", "PubChem SID": "SID131521741", "two-siRNA summed score (-2 to +2)": 1, "mean protection from cisplatin (shift in death) (%)": 14.7}
{"gene": "SEZ6", "PubChem SID": "SID131515352", "two-siRNA summed score (-2 to +2)": 0, "mean protection from cisplatin (shift in death) (%)": 9}
{"gene": "LAMP2", "PubChem SID": "SID131502837", "two-siRNA summed score (-2 to +2)": 0, "mean protection from cisplatin (shift in death) (%)": -25.2}
{"gene": "LOC441148", "PubChem SID": "SID131522354", "two-siRNA summed score (-2 to +2)": 1, "mean protection from cisplatin (shift in death) (%)": 17.9}

Already shown: an excerpt of the list.
{"gene": "TMEM230", "PubChem SID": "SID131512914", "two-siRNA summed score (-2 to +2)": 0, "mean protection from cisplatin (shift in death) (%)": 6}
{"gene": "ABHD2", "PubChem SID": "SID131512748", "two-siRNA summed score (-2 to +2)": 0, "mean protection from cisplatin (shift in death) (%)": 5.8}
